Tested on: mouse
Assay: Acute toxicity, oral, mouse
Format: in vivo
Method: The respective lethal dose 50 was calculated according to the method of Litchfield and Wilcoxon (Jl. Pharmacol. Exptl. 96 99, 1949).

CCCCc1oc2ccccc2c1C(=O)c1cc(I)c(OCCN(CC)CC)c(I)c1 [Amiodarona, reference compound]
LD50: > 4000 mg/kg

Reference: patent US4495199A, “Dioxolanic amine with pharmacological activity, its method of preparation, the pharmaceutical compositions containing same and their use in human medicine” (priority 1982, dated 1985)
